In paper PMC6280682, “The Micronemal Plasmodium Proteins P36 and P52 Act in Concert to Establish the Replication-Permissive Compartment Within Infected Hepatocytes” (Frontiers in Cellular and Infection Microbiology, 2018) one finds binding data, which are given here for one molecule.

No constants are given. Whether binding was seen depends on the method and setting. In cells and extracts the contact can be indirect. Some binding calls cover weakened binding; strength is not graded here. Where a sequence is shown, tags or fusion partners need not be part of it.

The target in assay [1] is T1, Plasmodium yoelii P36 with a C-terminal mCherry tag (P36^mCherry) (Plasmodium yoelii) (UniProt Q7RPW4).
T1 sequence: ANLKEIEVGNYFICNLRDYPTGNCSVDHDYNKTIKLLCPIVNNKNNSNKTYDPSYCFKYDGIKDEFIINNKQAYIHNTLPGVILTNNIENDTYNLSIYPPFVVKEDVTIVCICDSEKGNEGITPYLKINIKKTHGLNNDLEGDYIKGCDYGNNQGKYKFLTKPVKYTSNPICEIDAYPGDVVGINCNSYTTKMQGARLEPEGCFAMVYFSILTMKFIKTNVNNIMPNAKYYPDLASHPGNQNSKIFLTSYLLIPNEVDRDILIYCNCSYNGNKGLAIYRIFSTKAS
Nature of the assay: cross-linking; P36^mCherry sporozoite lysate (PBS-based buffers) cross-linked with 2.5 mM BS3 on ice for 2 h; SDS-PAGE and western blot with α-mCherry and α-P52. On the technique in general: Immunoblotting shows a protein as a band on a membrane.

Assay [2] concerns the target T1, Plasmodium yoelii P36 with a C-terminal mCherry tag (P36^mCherry) (Plasmodium yoelii). Briefly: co-IP; P36^mCherry immunoprecipitated from salivary gland sporozoite lysate (10 mM Tris-HCl pH 7.5, 150 mM NaCl, 0.5 mM EDTA, 0.5% NP-40) with RFP-Trap_MA beads, 4°C 1 h, four washes; western blot with α-mCherry and α-P52; wild-type lysate and unconjugated beads as controls.

B1: Plasmodium yoelii P52 (natural protein)
chain: NVPNPNTTIGHFEICEVNTSSGDAEECVLENEFGKMFLFICDIDYNEMSKNIVLPSECAKKTYIDHVNPNGTSPEVNTYDIFPDLIAANESQFRDKFYFYGTPYSSKDIDFICLCFSETKPDIKHVMKMSFKKMTKKIKGCDFGDNIPTKKDLTNGKALYENSSCHIYAYPGDVIGINCYKKDINNIYNNNLELQPNNCFHNVYYEDDILLSSKNLIPNSRVIPDPSNDVKLSKMHSYMSYIILPDEINENVKISCACKRDEYIGTMFLYVNTSKNILTSPDNNVEEIAPLNDHYISIGDMWDMGLHENPEQIQGIISNHANKKYYEHMKIYKSNKMDSSDDDESNETESSENESNERTHNGNRANKDANNSEKMTGNRRKKNNSINNTNYYSNYEDDNGINISTHDKYYEDQHFGNNGPLRKKRTFWQNMFGTS
notes: P52, Plasmodium yoelii 17X, 6-cys s48/45 family, two s48/45 domains; predicted MW 53 kDa; also called Py P52; source: endogenous, P. yoelii P36^mCherry salivary gland sporozoite lysate
Regarding B1, the binding entry in assay [1] and in assay [2] was “binds” in each case.
